104 sequences from PubChem BioAssay AID1347423 (Functional Genomics Laboratory (NCATS/FGL), 2020) can be followed below.

The campaign covered roughly 52,000 sequences. About 210 (0.4%) were called active.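 The calls were made as follows: active = gene whose silencing raises cell survival under the drug, median off-target-corrected z-score across its silencing RNAs 2 or more; inactive = the rest.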 This is one part of the list.

A short description of this experiment: Resistance to Poly (ADP-Ribose) Polymerase inhibitor: Gene Identification via Genome-wide siRNA Screen. The following applies: mouse BRCA2 R2336H ES cells, olaparib, CellTiter-Glo viability; hits give high values. The gist of the method:
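Mouse BRCA2 R2336H ES cells were reverse-transfected with siRNA (20 nM final), treated at 48 h with 500 nM olaparib, and read by CellTiter-Glo after 72 h. Scores: MAD-based z per siRNA, median per gene, seed off-target correction.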
CGUAAGAAGUGGAUGAACATT against Zc3hdc7: the z-score was inactive: 0.415. GGAGCUGACAGACUUCCUGTT against Fosl1: the z-score was inactive: -1.51. Turning to GGCUUUAAGACAUAGUACUTT against Lbh, the z-score is inactive: 1.21.

As to “GGUAUUUACCAUUAGCAGGTT against 6330442E10Rik”, the z-score was inactive: -0.39.

As for “CGAGUGUAAAUCCACUUUGTT against 0610039J04Rik”, the z-score was inactive: -0.66. On to GAACUGGUCCUACAAUGAATT against BC014685, for which the z-score was inactive: -0.212. As to “GGGUAAACAAACAGGUACCTT against 1200009O22Rik”, the z-score is inactive: 0.98. Next, CCUUAACCUGGACAAGUGCTT against Itm2b: inactive: -0.222.

With CCCUCCAUGUCUAAAAAAATT against Kcmf1, the z-score is inactive: 0.105. GCUCCUAUUACUGAAUUUATT against Olfr749: the z-score is inactive: 1.28. For the sequence GGCAAUUGGAAAUGCCCUGTT against Atp5h, the z-score is inactive: -0.553.

As to GCGUAGACUUGAGGACUUATT against Rxrip110, the z-score was inactive: -1.51. For “GGUGCUCCUAUCCUGUUCATT against 2810489O06Rik”, the z-score is inactive: -0.818. Take GGGACAAUGGAGCAAGAUGTT against Fbxo42: the z-score was inactive: -0.281. Turning to GGUUACUUAGCUUUUCUGATT against Tnfaip2, the z-score is inactive: 0.532. Take GGUUGGACAAAAUGAUCUUTT against Abhd5: the z-score was inactive: 0.728.

On to GGAAUUCCCAUUGGAAGAATT against V1re4, for which the z-score was inactive: 0.982. Next, CCAUCAAAACGAUCAACAATT against Setbp1: inactive: 0.457; GGCUUUUGUUUUGAGGUAGTT against Zbed3: inactive: -0.201. The figure for GGUUUUCUUCUGAAUACCCTT against Dusp4 is inactive: 1.09; for GCUGAUAUGCUAUUGUAGATT against Defcr5 it is inactive: 0.615; for GGUUGAAGGAGUGUUUUAUTT against D10Wsu52e it is inactive: -0.635. Take GGAGUUUGAUGCAAAUUUUTT against Plpi: the z-score is inactive: -0.147. On to CCACUGAGCCCAAUGGGUUTT against Nrxn2, for which the z-score was inactive: -1.05. With CCUCCUAAGGAUGAAGAUUTT against Calml4, the z-score was inactive: -0.342. On to GGAUAUACUUACGUAACGGTT against Srp9, for which the z-score was inactive: 0.665. As to “GGAAAGCACUUUUAUUCCUTT against 3110007P09Rik”, the z-score is inactive: 1.88. Consider GGUAAUGUUUGAAACUUACTT against Actr2, for which the z-score was inactive: 0.476. Take “GGCCAAAUGGAAUAAGAAGTT against 5430401O09Rik”: the z-score was inactive: -1.42. Take “GGUUCUGGUUGAUAGAGAUTT against 4931428L18Rik”: the z-score is inactive: -0.289. Consider “GGAUAGAUGGUACACGUCUTT against 2410004A20Rik”, for which the z-score was inactive: -1.24.

On to GGCAGAAAGAAAUUGAGAATT against Trim42, for which the z-score was inactive: -0.241. The figure for CGGGUGCCGGAAAGUUUAUTT against Klf7 is inactive: 0.466; for “GCUAUUGUAGUGGUUACUGTT against D430014M15” it is inactive: -1.39; for CCUAAAUUAGUAGGACGGUTT against Cdkn1a it is inactive: -0.742. On to GGAACCUGUACAGAUAAAGTT against Pam, for which the z-score was inactive: -0.852. As for CCAUAUUUCAGAUCAGACUTT against Zfp68, the z-score is inactive: 1.33. On to GGAGUCGUGUAUUUUGCUGTT against B3gat3, for which the z-score was inactive: 0.537. Take GCAUUGUCAGUCCUACGUGTT against 9.83E+24: the z-score was inactive: 1.38. With GAUAAUAUCUUUGUCUGCUTT against Olfr461, the z-score is inactive: 0.125. Take GCUGCGUCCUAUGAGUUUATT against Drg2: the z-score is inactive: 2.29. Consider “GCUACCAUCUGCUAAUACATT against 2610207I05Rik”, for which the z-score was inactive: -1.41. As to GCUCAUGAUAUUACCUUCGTT against Olfr601, the z-score was inactive: -0.255. For GCAGAUUUUCCUUGUAGAATT against Smad2, the z-score was inactive: 0.77.

“CGAAUAUGGGAUCAAGAAATT against 4933425L06Rik”: the z-score was inactive: 2.74.

As for GCUUCCUCAAGCGCAUGUATT against Cox10, the z-score was inactive: 1.58. Regarding “CGAUGCAUUCAUUGUCUAUTT against A830073O21Rik”, the z-score was inactive: -0.527. Regarding GGAAAAAGAGCAAAUUACUTT against Kif23, the z-score was inactive: 0.545. Take GGCGAGACGACACAUUUUCTT against Cdc16: the z-score is inactive: -3.14.

For the sequence CCUGGUAACCUGCUAAAAGTT against LOC331392, the z-score was inactive: 2.26. With GGUGGAGAUGGAAAACAUGTT against Myoz1, the z-score was inactive: -0.319. On to GGACCAGGAUAGGACCAAUTT against Avpr2, for which the z-score was inactive: 0.604.

Regarding GGCAGCUUAGCUACUAUUCTT against Zfyve28, the z-score is inactive: -2.63.

With “GGUACACUUUGAAGACAAUTT against C230095G01Rik”, the z-score is inactive: -1.88. The figure for GGUAGCAGUAGGAUACUUCTT against Fshprh1 is inactive: -2.62. The figure for GCUCGUAAUCUUUAUUGUUTT against Olfr874 is inactive: 1.7. In the case of CCUAAGCCCAAGAUCAUCUTT against Mybph, the z-score was inactive: -1.07.

For GGUCAACCUCAUGUUACGATT against Card11, the z-score was inactive: 2.8. As to GCCUUCAUGGGAUUUGUCUTT against Opn1sw, the z-score was inactive: -0.763. For GGGAUUUCUUACCCUGUUUTT against Prr7, the z-score is inactive: -0.454.

As to CGCCUGUGUUUCGUACGUUTT against Mafg, the z-score is inactive: 0.00746. For the sequence CCACAUCUAGGCAAGGAACTT against Si, the z-score is inactive: 0.201.

In the case of “CGAUCACACUCGAAAUCACTT against D10Bwg0940e”, the z-score was inactive: -0.59. For the sequence CCACUAGACUUCAAUGACUTT against Zfhx1b, the z-score is inactive: 1.17.

For the sequence “CCGAUACCGGGUAUUUACCTT against 2610103M17Rik”, the z-score is inactive: -0.859. With GACAGUAGCCUUCCUCAGGTT against Nr0b2, the z-score is inactive: -0.139. Take GGUGUUGGAGACCAUGGAUTT against Clcn6: the z-score was inactive: -0.602. In the case of “CGCAUAUAUGUGUGUCGCCTT against 6330530A05Rik”, the z-score was inactive: 0.111. GGGCAUUUCAUACAACUCATT against Hsn2: the z-score was inactive: 0.421. Next, GGCGUACGUAGACAAGUACTT against Sfrs2ip: inactive: -1.7; “CGAGGGUCCUCGAAGACUATT against 3300002I08Rik”: inactive: -1.64; CCUACAUCCCUACCAUAGATT against Diras1: inactive: 0.84. Take “GGUGGUUUUGCUUUCUGUCTT against 6332401O19Rik”: the z-score was inactive: 0.765. The figure for GGUGGUCUACUUAGGUUUATT against Sc5d is inactive: 0.431; for GGCUAAGUAGAACUUGUUATT against Pdcl2 it is inactive: 1.5; for “GGAAAACUACUAAAAAGUCTT against 4932415D10Rik” it is inactive: -0.932. For “GCAUCGCAUUUAAAUAGAATT against 4833408A19Rik”, the z-score was inactive: 0.307. For the sequence GGAGAAUGAAAGUCAAGUUTT against Smn1, the z-score was inactive: -1.58. Next, GCUAGACUCAAUCAAGCAGTT against Papln: inactive: -1.4. The figure for GCUUAAGUGGCAACCUAGATT against Zfp93 is inactive: -0.876; for GGAAAUACCCACCUUAUACTT against Efhc2 it is inactive: -0.277. In the case of GGAGAAGAAGUGCUUCCCUTT against Gls2, the z-score is inactive: -0.676.

Take “GGAUGAAGAAGAGAUCAACTT against 2310057H16Rik”: the z-score is inactive: 0.83. Turning to “GCUCGAUUUUAAGCAUAUGTT against E130307J07Rik”, the z-score was inactive: 0.375. Regarding “GGUAGAUGGCAUCUACUAUTT against 1110007C05Rik”, the z-score was inactive: 0.125.

Regarding GGAGAUAAUGAAGAAGGUUTT against Mgat5, the z-score is inactive: -0.377.

For CGAACAACCUCAUUUCAUGTT against Atp8b1, the z-score is inactive: 0.146. Take “GGCAACUCUAUAGAAGAAATT against 4732463G12Rik”: the z-score was inactive: -0.168.

Regarding GGCUUGGUUCUGGUACCUUTT against Ddx28, the z-score is inactive: 0.911. Take GGAUUUGAGUGGUAAUGAATT against Bbp: the z-score was inactive: 2.1. For GGCCAUCUGCUCCUUUAUUTT against Aqp11, the z-score is inactive: 0.519. The figure for GGAUCUUGAGAAGAAGUAUTT against Adcy6 is inactive: 0.435; for GCUAAAAACGAGAUAAGAGTT against Snx2 it is inactive: 0.744. For CCUUGUUCCCUUAUUGUACTT against Olfr362, the z-score was inactive: -0.295. Consider CCGAAAAUGGUUAGGACAUTT against Kynu, for which the z-score is inactive: -1.43. Turning to GGUUUGUUUACUCCUUUUGTT against Olfr876, the z-score was inactive: 1.67. As for GCAUCUCAAAGUGUCACUATT against Ubxd3, the z-score was inactive: 2.41.

As for CGAGUUAUCCAAUAGCAUCTT against Rab12, the z-score was inactive: 0.532. With GCCGAUAUUGUGACAAGAUTT against Cd72, the z-score was inactive: 0.165. For GGUGGAUAAAACCAAAAUGTT against Orc6l, the z-score was inactive: -1.7. Next, GGGAGACAGUGAUGGUUACTT against Ihpk1: inactive: -0.283; CCAGAAGACCUUUUACCUGTT against Il1rn: inactive: 0.314; GGAUCAGGUGUGUGAGUCCTT against Gzmc: inactive: -1.34. On to GGAAGUCCACUUUUUUGUGTT against Cpb2, for which the z-score was inactive: 0.378.
